Data: US20240167070A1
These are yes or no findings as the source states them, for the method shown. Some entries that bind do so weakly or less than the wild type.

The chains behind the UniProt entries cited, without tags or fusion partners. Residues count along the entry.
UniProt P08253, residues 110-660: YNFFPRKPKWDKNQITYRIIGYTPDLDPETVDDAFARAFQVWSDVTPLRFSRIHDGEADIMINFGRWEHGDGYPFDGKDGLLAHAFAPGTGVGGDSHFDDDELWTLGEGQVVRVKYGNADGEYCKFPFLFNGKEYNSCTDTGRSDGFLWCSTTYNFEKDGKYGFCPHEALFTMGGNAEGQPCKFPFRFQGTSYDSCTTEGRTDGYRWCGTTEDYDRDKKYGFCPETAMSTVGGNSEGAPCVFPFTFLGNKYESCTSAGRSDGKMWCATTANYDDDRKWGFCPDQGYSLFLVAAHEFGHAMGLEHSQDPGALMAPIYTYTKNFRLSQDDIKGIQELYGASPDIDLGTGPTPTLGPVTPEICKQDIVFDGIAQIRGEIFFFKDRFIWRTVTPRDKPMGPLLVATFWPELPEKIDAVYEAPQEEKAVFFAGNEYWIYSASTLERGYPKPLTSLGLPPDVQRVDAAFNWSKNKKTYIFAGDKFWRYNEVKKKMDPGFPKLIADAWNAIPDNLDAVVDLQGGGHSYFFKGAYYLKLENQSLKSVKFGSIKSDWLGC

Biological target: matrix metalloprotease 2 (MMP2) (UniProt P08253)
Experiment: MMP2 FRET-substrate inhibition assay

| binding | Binder |
| --- | --- |
| binds | SYCDCLCRRGVCRCICTI (head-to-tail cyclic; oxidatively folded (disulfides)) [Asp-RTD-1 18, cyclo[…]] |
| binds | SYCNCLCRRGVCRCICTI (head-to-tail cyclic; oxidatively folded (disulfides)) [Asn-RTD-1 19, cyclo[…]] |
